The source of these data is publication PMC7103907.

Chains of the proteins cited; added tags and fusions are not shown.
UniProt P42768: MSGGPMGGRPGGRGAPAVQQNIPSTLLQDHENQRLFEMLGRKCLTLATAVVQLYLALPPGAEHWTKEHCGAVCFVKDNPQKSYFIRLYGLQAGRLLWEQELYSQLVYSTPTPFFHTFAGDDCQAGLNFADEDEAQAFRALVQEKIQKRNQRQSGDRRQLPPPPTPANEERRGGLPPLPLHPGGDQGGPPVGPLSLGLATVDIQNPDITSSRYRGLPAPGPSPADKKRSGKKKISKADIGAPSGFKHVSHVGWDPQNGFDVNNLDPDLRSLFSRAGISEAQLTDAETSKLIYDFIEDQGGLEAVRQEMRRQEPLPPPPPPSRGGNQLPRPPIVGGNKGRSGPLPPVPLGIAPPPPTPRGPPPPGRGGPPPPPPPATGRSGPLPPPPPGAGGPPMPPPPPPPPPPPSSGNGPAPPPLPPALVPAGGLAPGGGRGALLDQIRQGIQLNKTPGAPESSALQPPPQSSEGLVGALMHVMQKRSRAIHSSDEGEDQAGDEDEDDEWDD
UniProt Q8R4B8: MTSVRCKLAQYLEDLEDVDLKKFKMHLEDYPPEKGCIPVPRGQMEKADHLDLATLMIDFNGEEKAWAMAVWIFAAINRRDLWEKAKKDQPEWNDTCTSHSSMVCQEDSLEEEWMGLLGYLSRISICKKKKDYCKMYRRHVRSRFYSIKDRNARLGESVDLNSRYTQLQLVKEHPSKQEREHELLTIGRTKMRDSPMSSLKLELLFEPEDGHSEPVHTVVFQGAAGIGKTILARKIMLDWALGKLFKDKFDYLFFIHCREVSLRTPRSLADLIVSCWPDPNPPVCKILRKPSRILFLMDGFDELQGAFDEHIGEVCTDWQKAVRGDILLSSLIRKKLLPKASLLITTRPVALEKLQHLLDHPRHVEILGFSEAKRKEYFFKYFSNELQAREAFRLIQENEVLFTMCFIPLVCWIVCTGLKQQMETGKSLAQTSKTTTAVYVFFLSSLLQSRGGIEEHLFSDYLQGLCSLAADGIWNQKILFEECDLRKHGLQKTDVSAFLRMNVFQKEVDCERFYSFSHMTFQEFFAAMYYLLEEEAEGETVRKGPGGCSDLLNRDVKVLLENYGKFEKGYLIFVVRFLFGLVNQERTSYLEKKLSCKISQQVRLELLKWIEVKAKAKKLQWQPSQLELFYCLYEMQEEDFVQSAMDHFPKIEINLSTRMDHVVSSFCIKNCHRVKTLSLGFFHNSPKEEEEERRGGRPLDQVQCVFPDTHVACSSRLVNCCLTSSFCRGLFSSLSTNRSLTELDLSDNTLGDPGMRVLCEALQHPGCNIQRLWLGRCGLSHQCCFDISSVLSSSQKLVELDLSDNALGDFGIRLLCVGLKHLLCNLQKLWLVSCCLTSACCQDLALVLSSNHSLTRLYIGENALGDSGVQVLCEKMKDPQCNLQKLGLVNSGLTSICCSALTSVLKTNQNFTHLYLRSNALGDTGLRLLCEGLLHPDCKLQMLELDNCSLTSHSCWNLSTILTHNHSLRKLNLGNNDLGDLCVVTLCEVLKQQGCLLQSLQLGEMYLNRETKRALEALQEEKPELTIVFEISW
UniProt Q92747: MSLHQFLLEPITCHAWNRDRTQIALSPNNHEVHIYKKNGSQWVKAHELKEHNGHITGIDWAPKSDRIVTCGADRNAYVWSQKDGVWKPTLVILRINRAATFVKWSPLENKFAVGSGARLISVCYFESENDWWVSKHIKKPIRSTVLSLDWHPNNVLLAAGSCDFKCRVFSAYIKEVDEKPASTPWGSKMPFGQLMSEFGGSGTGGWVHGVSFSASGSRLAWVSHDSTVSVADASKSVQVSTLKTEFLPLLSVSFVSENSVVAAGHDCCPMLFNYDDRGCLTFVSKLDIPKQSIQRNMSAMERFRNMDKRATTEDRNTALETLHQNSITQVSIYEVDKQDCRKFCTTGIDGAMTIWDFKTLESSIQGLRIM
UniProt P18760: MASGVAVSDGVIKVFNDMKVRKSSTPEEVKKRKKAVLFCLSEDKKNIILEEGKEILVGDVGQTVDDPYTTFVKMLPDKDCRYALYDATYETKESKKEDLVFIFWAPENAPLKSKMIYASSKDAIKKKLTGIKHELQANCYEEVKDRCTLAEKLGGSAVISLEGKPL

Results are given in words; binding and its absence hold for the method and conditions named. In cells and extracts the contact can be indirect. Some binding calls cover weakened binding; strength is not graded here.

For one assay, the target named is full-length WASP (UniProt P42768). Description: co-IP; immunoprecipitation of ARPC1B or ARPC1A with VCA and WASP; cells and constructs not stated.
The target of assay [1] is NLRP3 (mouse (endogenous in BMDM)) (UniProt Q8R4B8). Description: co-IP; mouse bone marrow-derived macrophages (BMDM).
The target is the same in assay [2]. Description: condition: only cells stimulated with NLRP3 inflammasome activators (ATP or nigericin); co-IP; BMDM stimulated with known NLRP3 inflammasome activators, such as ATP or nigericin.
The target in a further assay is T1, P2X7 (UniProt Q9Z1M0).
T1 sequence: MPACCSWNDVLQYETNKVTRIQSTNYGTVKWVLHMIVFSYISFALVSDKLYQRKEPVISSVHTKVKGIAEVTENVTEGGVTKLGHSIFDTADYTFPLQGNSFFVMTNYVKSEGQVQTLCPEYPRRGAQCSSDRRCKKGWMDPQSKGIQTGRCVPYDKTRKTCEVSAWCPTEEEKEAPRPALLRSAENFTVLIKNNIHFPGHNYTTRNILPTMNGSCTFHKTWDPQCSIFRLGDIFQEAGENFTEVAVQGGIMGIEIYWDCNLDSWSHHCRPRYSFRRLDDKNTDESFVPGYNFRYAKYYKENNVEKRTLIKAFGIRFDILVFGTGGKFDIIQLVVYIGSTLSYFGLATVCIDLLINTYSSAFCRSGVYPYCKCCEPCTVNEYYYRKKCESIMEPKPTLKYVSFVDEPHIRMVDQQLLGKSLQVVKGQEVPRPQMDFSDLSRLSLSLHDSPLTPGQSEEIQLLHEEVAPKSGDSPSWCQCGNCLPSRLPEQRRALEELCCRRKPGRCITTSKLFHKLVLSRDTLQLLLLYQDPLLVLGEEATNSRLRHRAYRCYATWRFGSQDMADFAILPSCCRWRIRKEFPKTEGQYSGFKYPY
Put plainly: co-IP; cells and constructs not stated.

In the case of ARPC1A (from UniProt Q92747 1-370), the binding entry with full-length WASP is “binds”.

As for Cofilin-1 (from UniProt P18760 1-166), the binding entry in assay [1] is “binds”; in assay [2] it was “no binding”.

B1: Eros (protein, UniProt Q3TYS2 1-187)
chain: MYMQVETRTSTRLHLKRAPGIRSWSLLVGILSTGLAAAYYSGDSLGWKLFYVTGCLFVAVQNLEDWEEAIFNKNTGKVILKTFSLYKKLLTLLRAGHDQVVVLLKDIQDVNVEEEKVRYFGKGYMVVLRFATGFSHPLTQSAVMGRRSDVEAIAKLITSFLELHRLESPSERSQSSDSEPDGPGGQS
Consider B1, for which, in the assay with P2X7, the binding entry is given as “binds”.
